Drawing on article PMC3672211, this text covers binding for 1 substance.

In the assay the target is T1, MtLYK3-YFP N (Medicago truncatula LysM domain-containing Receptor-Like Kinase 3 fused to the N-terminal part of split YFP) (Medicago truncatula) (UniProt Q6UD73).
T1 sequence: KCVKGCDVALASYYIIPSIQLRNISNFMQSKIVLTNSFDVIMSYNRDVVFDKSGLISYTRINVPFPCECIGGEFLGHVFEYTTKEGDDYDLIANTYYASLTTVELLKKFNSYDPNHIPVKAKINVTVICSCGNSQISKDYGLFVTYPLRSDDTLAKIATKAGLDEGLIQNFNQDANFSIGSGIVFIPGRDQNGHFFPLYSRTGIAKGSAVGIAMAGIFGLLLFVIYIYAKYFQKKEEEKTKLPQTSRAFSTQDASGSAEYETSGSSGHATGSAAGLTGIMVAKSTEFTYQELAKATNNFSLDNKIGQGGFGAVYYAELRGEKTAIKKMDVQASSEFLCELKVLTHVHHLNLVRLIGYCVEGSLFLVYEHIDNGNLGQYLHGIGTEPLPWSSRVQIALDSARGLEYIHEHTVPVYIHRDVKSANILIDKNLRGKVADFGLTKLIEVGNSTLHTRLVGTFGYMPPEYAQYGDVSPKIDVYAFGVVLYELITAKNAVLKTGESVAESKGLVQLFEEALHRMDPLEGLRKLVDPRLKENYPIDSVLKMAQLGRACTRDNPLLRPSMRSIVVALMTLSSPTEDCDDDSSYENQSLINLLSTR
Description: split reporter; BiFluorescence Complementation in Nicotiana benthamiana leaves; Agrobacterium transformants with YFP C and YFP N constructs co-infiltrated at high optical densities (final OD600 = 0.5 each); YFP fluorescence by microscopy.

These are yes or no findings as the source states them, for the method shown. In cells and extracts the contact can be indirect. Tags and fused reporters may be left off the sequences shown.

With “MtLRRII.1-YFP C (Medicago truncatula LRRII.1 fused to the C-terminal part of split YFP) (receptor)”, the binding result is listed as “no binding”.
